This is one part of the list.

The text below walks through data of paper PMC7819943, “Rice protein-binding microarrays: a tool to detect cis-acting elements near promoter regions in rice”.

This test has as its target T1, OsSMF1 (Oryza sativa, UniProt Q6ZLB0 1-436).
T1 sequence: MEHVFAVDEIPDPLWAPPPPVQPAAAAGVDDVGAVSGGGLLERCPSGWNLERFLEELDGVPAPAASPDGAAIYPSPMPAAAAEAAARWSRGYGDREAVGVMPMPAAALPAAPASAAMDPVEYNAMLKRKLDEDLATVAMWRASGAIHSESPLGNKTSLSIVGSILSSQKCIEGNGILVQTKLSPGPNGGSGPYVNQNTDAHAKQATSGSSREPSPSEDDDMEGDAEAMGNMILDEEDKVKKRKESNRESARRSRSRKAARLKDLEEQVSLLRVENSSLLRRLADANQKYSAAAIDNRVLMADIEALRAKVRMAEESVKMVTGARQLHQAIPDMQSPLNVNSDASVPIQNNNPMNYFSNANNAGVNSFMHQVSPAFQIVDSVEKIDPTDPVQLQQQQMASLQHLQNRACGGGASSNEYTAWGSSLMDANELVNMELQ
In words: protein-binding microarray (RPBM); PBS, 2% BSA, 51.3 ng/ul salmon testes DNA, 50 uM zinc acetate, 200 nM TF, 25 C, 1 h; high values mean tight binding. The note with it: protein: recombinant; tags: N-terminal polyhistidine and DsRed monomer fusion (pET32a); chain copies: 2; label: CyDye5-dUTP incorporated in the synthesized complementary strand; 3' TTTTT single-stranded linker to array surface; dsDNA, one strand shown. An outline of the steps: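 Transcription factors, each fused N-terminally to a polyhistidine tag and DsRed, were expressed in E. coli BL21-CodonPlus and purified on Ni–NTA. A custom Agilent array was made double-stranded by primer extension with Cy5-dUTP and blocked with 2% BSA. It was incubated with 200 nM protein in PBS, 2% BSA, salmon testes DNA and 50 µM zinc acetate at 25 °C for 1 h, then washed. The binding signal is per-feature fluorescence intensity (arbitrary units) read on an Axon 4000B scanner.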
Consider “GCTCCATGGAAGCATGGAAGATGGAACATGACGTAAAATCCGGAGTCACCTAGTGCAG”, for which the binding signal was 3390 fluorescence intensity (a.u.).

Consider “ACAAAAGATAATCCACGTCTTCATAGCGTAAAATTTAAGGCGGAGTCACCTAGTGCAG”, for which the binding signal is 3330 fluorescence intensity (a.u.).

As to “CTCATGATGGCTTTATCAATATCAAGATTTGATGACTCAGCGGAGTCACCTAGTGCAG”, the binding signal was 15400 fluorescence intensity (a.u.).

As for “TACGTACGTGCCGCTTTCGCCACGCGCCATGCATGCACCACGGAGTCACCTAGTGCAG”, the binding signal is 4990 fluorescence intensity (a.u.).

In the case of “TCTTCAGCTGAAGCACATGATTCATCAAGTATATGGAAGCCGGAGTCACCTAGTGCAG”, the binding signal was 3570 fluorescence intensity (a.u.).

Turning to “GGATCCAGCTCATGTACGTTACATTACACCCTCTTCTCGTCGGAGTCACCTAGTGCAG”, the binding signal was 5720 fluorescence intensity (a.u.).

Regarding “CTCTCCACTTCTCTCCTCCACCTCATCACCCAATCCAATGCGGAGTCACCTAGTGCAG”, the binding signal is 4660 fluorescence intensity (a.u.).

Consider “GTCTCGCCACATACTACGCTTCAGTCTTCTTCTTCCTCCACGGAGTCACCTAGTGCAG”, for which the binding signal is 4720 fluorescence intensity (a.u.).

Consider “GGTCGGAGGTGCATCGAAATGCACAACCAAAGCCACATGCCGGAGTCACCTAGTGCAG”, for which the binding signal is 15800 fluorescence intensity (a.u.).

Consider “TCAAGCTATACCTGGGGCGGAATCTGGCTGTCCCCAAAGTCGGAGTCACCTAGTGCAG”, for which the binding signal was 3500 fluorescence intensity (a.u.).

As for “TGAACCTCGAAGATGCAAATATGTAGTAGTACGTAGGTCCCGGAGTCACCTAGTGCAG”, the binding signal was 3310 fluorescence intensity (a.u.).

In the case of “CTTTCTCTCTCTTGGAATCAACTGGAAAGCTAGGCACGCACGGAGTCACCTAGTGCAG”, the binding signal is 3360 fluorescence intensity (a.u.).

Consider “TGTCCATCTCTAGGTACACGTGGCTGGTGCCAACCCACATCGGAGTCACCTAGTGCAG”, for which the binding signal is 16300 fluorescence intensity (a.u.).

In the case of “GCCGCGTCTATACGCGATCTCGATGACACGTGGGGCCGGACGGAGTCACCTAGTGCAG”, the binding signal was 7710 fluorescence intensity (a.u.).

With “TCTCGCGCCTCGCTGCCACGCCGCGCCGACGCCGTCGCCCCGGAGTCACCTAGTGCAG”, the binding signal is 3160 fluorescence intensity (a.u.).

Take “ATGCCCATTTTGTAGCGTCGATTCTTGTTTCTGCTTGATTCGGAGTCACCTAGTGCAG”: the binding signal was 3630 fluorescence intensity (a.u.).

On to “CGACTGTAGTATATGGCGTCATATTTCTAACAACTCCGATCGGAGTCACCTAGTGCAG”, for which the binding signal was 12100 fluorescence intensity (a.u.).

“GATATGCGGCTAAGATCGAGGCATGACACGAGTTTTCGGACGGAGTCACCTAGTGCAG”: the binding signal was 5220 fluorescence intensity (a.u.).

In the case of “CCATTTTGTCAGGAACCAGAGTGATGTTGATGCAATCATGCGGAGTCACCTAGTGCAG”, the binding signal is 3150 fluorescence intensity (a.u.).

“TAGCTCAGGGCCTAGGATTCAGAGCCCATATAGAGACATACGGAGTCACCTAGTGCAG”: the binding signal is 3180 fluorescence intensity (a.u.).

Take “AGTTGCAACACAACATGTTATTCCATCTTTACAGGGTGCCCGGAGTCACCTAGTGCAG”: the binding signal is 4000 fluorescence intensity (a.u.).

Consider “ACCAACGAACGGACGCTGTCATGTCACCTCTCTTAATCTTCGGAGTCACCTAGTGCAG”, for which the binding signal was 3740 fluorescence intensity (a.u.).

Regarding “ACCGGCTGATCTGCCGCCTGACGACGTGCACGGCCGCCGGCGGAGTCACCTAGTGCAG”, the binding signal is 3300 fluorescence intensity (a.u.).

Turning to “ATGTCTCGTTATCTCCTAAACATGTCATTACACTGGAAACCGGAGTCACCTAGTGCAG”, the binding signal is 3240 fluorescence intensity (a.u.).

On to “GTATTAGTGGATAATGATGTAACATATTTGCATGTTTAGCCGGAGTCACCTAGTGCAG”, for which the binding signal is 17800 fluorescence intensity (a.u.).

Turning to “ACGAGATGAATCTTTTAACCTAGCTAGTCCATGATTAGCTCGGAGTCACCTAGTGCAG”, the binding signal was 3350 fluorescence intensity (a.u.).

In the case of “CCTTGACAAGTTTGTCCTCAATTTGATTTCAAGTCTAAAACGGAGTCACCTAGTGCAG”, the binding signal was 30900 fluorescence intensity (a.u.).

Turning to “CCAAGCCTTTTCCCACACGATTAGCTGTTGCAATTCATTCCGGAGTCACCTAGTGCAG”, the binding signal was 3520 fluorescence intensity (a.u.).

Consider “TTTTCCTATCATTTGTTTTGCACACGCGTTCCTATACGATCGGAGTCACCTAGTGCAG”, for which the binding signal was 4480 fluorescence intensity (a.u.).

For “ATACACGTATGCAAAAGTTTGCATACGTGTATATAAAGTTCGGAGTCACCTAGTGCAG”, the binding signal is 12600 fluorescence intensity (a.u.).

As to “TGCTCCTCTTCCTCGTCACCGCCGTCCTCCTCTTCCATCTCGGAGTCACCTAGTGCAG”, the binding signal is 6460 fluorescence intensity (a.u.).

Consider “TCCGCAGTCCGCACGAAGCACGACGCGACGACACGGATCACGGAGTCACCTAGTGCAG”, for which the binding signal was 14200 fluorescence intensity (a.u.).

For the sequence “ATCAGCCGCTTCTCCTCCTCCACGTCCATCGCCGCCGGCGCGGAGTCACCTAGTGCAG”, the binding signal was 4220 fluorescence intensity (a.u.).

In the case of “AAATCGTTTAGAGTGACTGAATACTCAACAATGAAAGCTGCGGAGTCACCTAGTGCAG”, the binding signal was 20300 fluorescence intensity (a.u.).

Consider “GCTCCTGATTTCTAGCTTGCTGTTGACAAAATTAGCTGTTCGGAGTCACCTAGTGCAG”, for which the binding signal is 3740 fluorescence intensity (a.u.).

As to “AATAAGTAAGGTGGTTTTAAAATTTGGGGAGAGCTAACAGCGGAGTCACCTAGTGCAG”, the binding signal was 39100 fluorescence intensity (a.u.).

As for “TTCCAGGTGGGACCGACGCGCGCCACGTCAGCGTAGCGGGCGGAGTCACCTAGTGCAG”, the binding signal was 27400 fluorescence intensity (a.u.).

With “ATTAATTATCATATAACGGTGTTATGTGGAGTGTGATGATCGGAGTCACCTAGTGCAG”, the binding signal was 3280 fluorescence intensity (a.u.).

Consider “AAGTAGGCGTAGTTAAATCAAATGAGTGCTGTGCTGTCCACGGAGTCACCTAGTGCAG”, for which the binding signal was 3400 fluorescence intensity (a.u.).

“CAATTATCCGCAACGTATGGCTAGCTCAACCCTACTGTAACGGAGTCACCTAGTGCAG”: the binding signal was 3270 fluorescence intensity (a.u.).

For “GGCGGTGCACGGCGGCGGCGGCGGTGGCGCTGGTGGGATGCGGAGTCACCTAGTGCAG”, the binding signal was 3160 fluorescence intensity (a.u.).

For “ACGTTTTGGCGGGAGTATCACGGGAGGGCCCACCTGTCATCGGAGTCACCTAGTGCAG”, the binding signal was 30400 fluorescence intensity (a.u.).

As to “GTCGCCGCCCTCAACACGGTGTTCATCTACTGGATCTTCACGGAGTCACCTAGTGCAG”, the binding signal is 4680 fluorescence intensity (a.u.).

Turning to “AATTATCATAAAACAACATATTTAAACCATGGTAACATAACGGAGTCACCTAGTGCAG”, the binding signal was 6200 fluorescence intensity (a.u.).

For “CCCTCCCATCATCAAGTCACCCACCAAGCGAAGCAAACCCCGGAGTCACCTAGTGCAG”, the binding signal is 4280 fluorescence intensity (a.u.).

On to “TCACATCAGATGTTTGACTAGATGTTGAAAGGGGTTTTCGCGGAGTCACCTAGTGCAG”, for which the binding signal is 3310 fluorescence intensity (a.u.).

As for “AAAATGACAATTCCTGTCTCATGATGCTTACATGTCCATGCGGAGTCACCTAGTGCAG”, the binding signal is 4050 fluorescence intensity (a.u.).

For the sequence “AGGGGATAGATGGAAATCATGACGGGAGTGGCACGGTTCTCGGAGTCACCTAGTGCAG”, the binding signal is 14500 fluorescence intensity (a.u.).

As for “TCCAATTTCATCCAACTCAGCTATAGCTTTCTTTGCACCTCGGAGTCACCTAGTGCAG”, the binding signal is 4350 fluorescence intensity (a.u.).

For “TCGGTTGGAGCAAGCGGCGGCGCAGACGTGGAAGCCCTTCCGGAGTCACCTAGTGCAG”, the binding signal was 5460 fluorescence intensity (a.u.).

For the sequence “CCACCGCCACGTTCCTCCTCACCTTTCACCCACCCACCACCGGAGTCACCTAGTGCAG”, the binding signal was 4350 fluorescence intensity (a.u.).

Regarding “GAGTACATGTATGGACAGACACTGTATGAATGATGTATGTCGGAGTCACCTAGTGCAG”, the binding signal was 3380 fluorescence intensity (a.u.).

Regarding “AGTTGATTCGGATCGTGTGCTCGTGATTTTGATCAACTTACGGAGTCACCTAGTGCAG”, the binding signal was 19600 fluorescence intensity (a.u.).

As to “CTCAAGCAGCGGAAGCGCGGGGCCTCCGGCTCCACCTCCGCGGAGTCACCTAGTGCAG”, the binding signal was 3240 fluorescence intensity (a.u.).
